Reference: PubChem BioAssay AID504784 (Drosophila RNAi Screening Center, 2011)
Test: 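Fly genes whose silencing alters how much lipid cells keep in droplets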 (primary screen). Cells: Drosophila Kc167 embryonic cells. Reagent: long dsRNA against Drosophila genes, about 250 ng dsRNA per well. Duration: 4 days. Treatment: cells fed 400 µM oleic acid bound to BSA. Measurement: 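Cells imaged and segmented; ratio of lipid droplet area to nuclear area, log-transformed, then normalised as a B-score over the screen; higher means more stored lipid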. Scale: droplet/nuclear area B-score: higher = more stored lipid (overstorage).
In all, the deposit lists about 17,000 reagents; shown is an unselected part of those that have a named target and a result. 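Each column is one replicate's B-score; the combined score over replicates was not deposited, so single values may mislead.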 Reagents against one gene are numbered here. Names joined by + are all predicted targets of the reagent. Further read-outs or replicates are left out here.

droplet/nuclear area B-score, replicate 1, by gene and reagent
Gem4b + Gem4c: #1 -0.113
ppk3: #1 0.0246
CG31677: #1 -0.379
Lfg: #1 -1.03
CG9447: #1 -0.0225
CG9839: #1 0.623
Wee1: #1 -0.336; #2 1.07
Tsp42Eg: #1 0.158
CG17760: #1 -0.219
Lmpt: #1 -0.109; #2 -1.28; #3 0.314; #4 0.516; #5 -0.912; #6 0.0662; #7 3.06
nod: #1 0.259; #2 1.48
CG11771: #1 -0.0592
msps: #1 1.11
CG7101: #1 -0.00383; #2 -0.357
spdi: #1 -1.61; #2 1.13
eyg: #1 -2.37; #2 1.02
CG6712: #1 0.976; #2 0.00746
fh: #1 -0.0235
lark: #1 0.0516

Sorted by “droplet/nuclear area B-score, replicate 1” (highest first): 12 of the entries above
gene	dsRNA no.	droplet/nuclear area B-score, replicate 1
Lmpt	7	3.06
nod	2	1.48
msps	1	1.11
Lmpt	4	0.516
Lmpt	3	0.314
nod	1	0.259
Lmpt	6	0.0662
CG7101	1	-0.00383
CG11771	1	-0.0592
CG7101	2	-0.357
Lmpt	5	-0.912
spdi	1	-1.61

More entries follow:
droplet/nuclear area B-score, replicate 1, by gene and reagent
betaNACtes4: #1 -0.555
CG13040: #1 1.19
spel1: #1 -0.932
Fer2LCH: #1 0.344
CG11019 (retired record): #1 -1.13
CG1105: #1 1.58
CG14570: #1 3.05
Akh: #1 -0.754
Rh4 + sina: #1 -0.265
CG11384: #1 0.282
Art3: #1 -0.0202
CG13074: #1 0.00718
CG4853: #1 -1.14
Grl65a: #1 -0.806
Cbp80: #1 -0.00506
grnd: #1 -0.799
Phf5a: #1 -0.823
Irc: #1 -0.092
Theg: #1 -0.179
CG18368: #1 -0.375
CG4151: #1 0.165
CG15109: #1 -0.252
CG7557: #1 0.0326
Rab10: #1 -1.94
C3G: #1 -2.66; #2 0.00975; #3 0.696; #4 -0.243
Twdlalpha: #1 -0.558
sgll: #1 0.67
robo1: #1 -0.0302
Trs33: #1 -0.0302
CG17944: #1 1.44
Lnpk: #1 -0.102
CG9044: #1 -0.485
ect: #1 0.986; #2 -0.561; #3 -0.264
cocoon: #1 -0.973
Rpt6: #1 -0.325
CG14963: #1 1.95
CG4101: #1 -0.356
wcd: #1 -0.889
Lcp65Ad: #1 -2.27
CG30447: #1 0.00246
CG32267: #1 -0.0749
Strn-Mlck: #1 0.153; #2 -0.627
CG31109: #1 -0.746
Bdp1: #1 0.0968
CG13614: #1 0.0284
CG32266: #1 0.399
